We go through two substances from article PMC7948726.

Amino acid sequences for entries named in this document (tags omitted).
UniProt P31946: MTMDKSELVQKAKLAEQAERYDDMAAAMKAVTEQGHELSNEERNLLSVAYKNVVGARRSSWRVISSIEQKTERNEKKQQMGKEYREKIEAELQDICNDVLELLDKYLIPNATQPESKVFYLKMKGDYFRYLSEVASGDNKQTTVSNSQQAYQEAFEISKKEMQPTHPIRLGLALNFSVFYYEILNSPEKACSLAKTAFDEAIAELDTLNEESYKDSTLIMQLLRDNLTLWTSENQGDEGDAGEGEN

Test [1] deals with FLAG-tagged wild-type DYRK1A (rat) (UniProt Q63470). In words: co-IP; HEK293 cells transfected 24 h with FLAG-DYRK1A-WT or FLAG-DYRK1A-S529A, HA-14-3-3β, with or without Myc-PPM1B; precipitated with anti-FLAG, blot with anti-HA.
The target of test [2] is T1, Myc-PPM1A (UniProt P35813).
T1 sequence: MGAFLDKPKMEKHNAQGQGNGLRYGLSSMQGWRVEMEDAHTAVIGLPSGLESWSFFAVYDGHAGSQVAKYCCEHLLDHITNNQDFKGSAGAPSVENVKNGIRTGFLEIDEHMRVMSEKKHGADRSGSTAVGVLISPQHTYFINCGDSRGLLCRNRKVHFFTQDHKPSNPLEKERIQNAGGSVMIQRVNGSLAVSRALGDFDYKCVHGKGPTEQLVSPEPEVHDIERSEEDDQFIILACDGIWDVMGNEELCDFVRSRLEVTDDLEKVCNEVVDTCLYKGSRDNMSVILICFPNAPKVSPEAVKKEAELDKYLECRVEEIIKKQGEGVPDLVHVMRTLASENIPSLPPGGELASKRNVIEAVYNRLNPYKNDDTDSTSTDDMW
In words: co-IP; SH-SY5Y cells transfected 24 h with Xpress-DYRK1A, Myc-PPM1A or Myc-PPM1B; lysate precipitated with anti-Myc, blot with anti-Xpress; 1% Nonidet P-40 lysis buffer.

These are yes or no findings as the source states them, for the method shown. In cells and extracts the contact can be indirect. A result given as binding can be weak or reduced; the word gives no strength. For some assays here: Where a sequence is shown, tags or fusion partners need not be part of it.

Consider HA-14-3-3β (from UniProt P31946 1-246), for which the binding result in test [1] is recorded as “binds”.
Consider “Xpress-DYRK1A (pXpress-His6-DYRK1A-WT) (from UniProt Q63470) (enzyme)”, for which the binding result in test [2] is recorded as “binds”.
